Measurements as given in PubChem BioAssay AID248 (DTP/NCI, 2004).
The list does not hold the whole screen: it gathers tests that were run many times, whatever their T/C, doses with no T/C, and many T/C values between a quarter and a half above the control. Other doses and runs of a compound stand elsewhere. T/C: endpoint of the treated group in % of that of the vehicle group. Some doses have a count of surviving animals in place of a T/C: the source holds a T/C of zero for them, seemingly a mark for toxic or unscored doses. Some doses without a T/C left all or most animals alive at the check, yet need not have been tolerated: the source hardly ever lists a survival T/C far under the control, and the zero likely stands for such cases as well. Survivors were counted at the toxicity check, usually on the fifth day, unless a day is given; later deaths do not show. Schedules are NCI's codes, read here as Q, the interval in days (D) or hours (H), X, the number of doses. Some schedules carry Z or #; the key to these is not given. Some entries were tested several times; their values stand side by side, smallest first. Where survival is the endpoint, the PubChem record calls one and a half times the control and up active, and a quarter to a half above the control has no call in these data; cut-offs in other NCI protocols can differ. Some T/C values are followed by the survivors on the day toxicity was checked, most often the fifth; without a count, all were alive then.

Tested on: L1210 leukemia ip in BDF1 mice, survival T/C
Assay: NCI In Vivo Anticancer Drug Screen. Data for tumor model L1210 Leukemia (intraperitoneal) in B6D2F1 (BDF1) mice
Conditions: T/C endpoint: mean survival time, higher T/C = longer survival
[1] = dose: 400.0 mg/kg/injection, schedule: Q01DX009 (ip), vehicle: saline with Tween-80
[2] = dose: 75.0 mg/kg/injection, schedule: Q01DX001 (ip), vehicle: saline
[3] = dose: 150.0 mg/kg/injection, schedule: Q01DX001 (ip), vehicle: saline
[4] = dose: 300.0 mg/kg/injection, schedule: Q01DX001 (ip), vehicle: saline
[5] = dose: 200.0 mg/kg/injection, schedule: Q04DX003 (ip), vehicle: saline with Tween-80
[6] = dose: 400.0 mg/kg/injection, schedule: Q04DX003 (ip), vehicle: saline with Tween-80
[7] = dose: 400.0 mg/kg/injection, schedule: Q01DX009 (ip), vehicle: Klucel (hydroxypropylcellulose) (HPC)
[8] = dose: 120.0 mg/kg/injection, schedule: Q01DX Z (oral), vehicle: carboxymethylcellulose (CMC)

For CC(=O)Oc1ccc(N2C(=O)C=CC2=O)cc1, the survivor count (dose: 12.5 mg/kg/injection, schedule: Q04DX003 (ip), vehicle: Klucel (hydroxypropylcellulose) (HPC)) was 3 of 6, the survivor count (dose: 18.48 mg/kg/injection, schedule: Q01DX009 (ip), vehicle: Klucel (hydroxypropylcellulose) (HPC)) was 0 of 6 and the survivor count (dose: 28.0 mg/kg/injection, schedule: Q01DX009 (ip), vehicle: Klucel (hydroxypropylcellulose) (HPC)) was 0 of 6. The survivor count (dose: 42.0 mg/kg/injection, schedule: Q01DX009 (ip), vehicle: Klucel (hydroxypropylcellulose) (HPC)) was 0 of 6 and the survivor count (dose: 50.0 mg/kg/injection, schedule: Q04DX003 (ip), vehicle: Klucel (hydroxypropylcellulose) (HPC)) was 2 of 6.

With O=C1C2(c3ccccc3)C(c3ccccc3)=C(c3ccccc3)C1(c1ccccc1)C1CC=CC12 (centres undefined) the survivor count [1] was 3 of 6.

CN=C(c1ccc(NC(=O)c2ccc(C(=O)Nc3ccc(C(=NC)N(C)C)cc3)c(Cl)c2)cc1)N(C)C was tested, and the survivor count (dose: 3.75 mg/kg/injection, schedule: Q01DX Z (ip), vehicle: saline) was 4 of 6, the survivor count (dose: 7.5 mg/kg/injection, schedule: Q01DX Z (ip), vehicle: saline) was 0 of 6 and the survivor count (dose: 15.0 mg/kg/injection, schedule: Q01DX Z (ip), vehicle: saline) was 0 of 6. The survivor count (dose: 30.0 mg/kg/injection, schedule: Q01DX Z (ip), vehicle: saline) was 0 of 6, the survivor count (dose: 60.0 mg/kg/injection, schedule: Q01DX Z (ip), vehicle: saline) was 0 of 6 and the survivor count (dose: 120.0 mg/kg/injection, schedule: Q01DX Z (ip), vehicle: saline) was 0 of 6.

O=C(OC12CCN(CC1)CC2)c1ccccc1 was tested, and the survivor count (dose: 38.0 mg/kg/injection, schedule: Q01DX001 (ip), vehicle: saline) was 0 of 6, the survivor count [2] was 0 of 6 and the survivor count [3] was 0 of 6. The survivor count [4] was 0 of 6.

In the case of [Cl][Sn]([CH2]c1ccccc1)([CH2]c1ccccc1)[CH2]c1ccccc1, the T/C (dose: 1.56 mg/kg/injection, schedule: Q04DX002 (ip), vehicle: saline with Tween-80) is reported as 127 % of control [2 of 3 alive], the survivor count (dose: 3.13 mg/kg/injection, schedule: Q04DX002 (ip), vehicle: saline with Tween-80) is reported as 1 of 3 and the survivor count (dose: 6.25 mg/kg/injection, schedule: Q04DX002 (ip), vehicle: saline with Tween-80) is reported as 3 of 3. The survivor count (dose: 12.5 mg/kg/injection, schedule: Q04DX002 (ip), vehicle: saline with Tween-80) was 3 of 3, the survivor count (dose: 25.0 mg/kg/injection, schedule: Q04DX002 (ip), vehicle: saline with Tween-80) was 1 of 3 and the survivor count (dose: 50.0 mg/kg/injection, schedule: Q04DX002 (ip), vehicle: saline with Tween-80) was 1 of 3. The survivor count (dose: 100.0 mg/kg/injection, schedule: Q04DX003 (ip), vehicle: saline with Tween-80) was 0 of 6, the survivor count [5] was 0 of 6 and the survivor count [6] was 0 of 6.

Cc1cc[n+](C)c2ccccc12 was tested, and the survivor count (dose: 75.0 mg/kg/injection, schedule: Q04DX003 (ip), vehicle: saline) was 4 of 6, the survivor count [3] was 0 of 6 and the survivor count (dose: 150.0 mg/kg/injection, schedule: Q04DX003 (ip), vehicle: saline) was 1 of 6. The survivor count [4] was 0 of 6.

In the case of O=[N+]([O-])c1ccc(N2N=NC(c3ccccc3)C2(c2ccccc2)N2CCOCC2)cc1 (centres undefined), the survivor count [2] is reported as 6 of 6 and the survivor count [4] is reported as 6 of 6.

With Nc1cc(Nc2ccccc2)nc(=O)[nH]1 the survivor count (dose: 400.0 mg/kg/injection, schedule: Q01DX001 (ip), vehicle: Klucel (hydroxypropylcellulose) (HPC)) was 5 of 6.

With COc1nn(C)c(=O)c2ncccc12 the survivor count (dose: 60.0 mg/kg/injection, schedule: Q01DX001 (ip), vehicle: carboxymethylcellulose (CMC)) was 0 of 6, the survivor count (dose: 75.0 mg/kg/injection, schedule: Q01DX001 (ip), vehicle: carboxymethylcellulose (CMC)) was 0 of 6 and the survivor count (dose: 150.0 mg/kg/injection, schedule: Q01DX001 (ip), vehicle: carboxymethylcellulose (CMC)) was 0 of 6. The survivor count (dose: 300.0 mg/kg/injection, schedule: Q01DX001 (ip), vehicle: carboxymethylcellulose (CMC)) was 0 of 6.

For O=C(Nc1ccccc1F)Oc1ccc(Cl)cc1Cl, the survivor count (dose: 300.0 mg/kg/injection, schedule: Q01DX009 (ip), vehicle: Klucel (hydroxypropylcellulose) (HPC)) was 4 of 6, the survivor count [7] was 4 of 6 and the survivor count (dose: 400.0 mg/kg/injection, schedule: Q04DX002 (ip), vehicle: Klucel (hydroxypropylcellulose) (HPC)) was 3 of 3.

In the case of CC(C)=C(C=O)CCC(C)C, the survivor count [1] is reported as 2 of 6.

For COc1cccc(N2C(=O)C=CC2=O)c1, the survivor count (dose: 6.25 mg/kg/injection, schedule: Q01DX009 (ip), vehicle: Klucel (hydroxypropylcellulose) (HPC)) was 2 of 6 and 3 of 6, the survivor count (dose: 12.5 mg/kg/injection, schedule: Q01DX009 (ip), vehicle: Klucel (hydroxypropylcellulose) (HPC)) was 1 of 6 and the survivor count (dose: 25.0 mg/kg/injection, schedule: Q01DX009 (ip), vehicle: Klucel (hydroxypropylcellulose) (HPC)) was 0 of 6. The survivor count (dose: 50.0 mg/kg/injection, schedule: Q01DX009 (ip), vehicle: Klucel (hydroxypropylcellulose) (HPC)) was 0 of 6, the survivor count (dose: 100.0 mg/kg/injection, schedule: Q01DX009 (ip), vehicle: Klucel (hydroxypropylcellulose) (HPC)) was 0 of 6 and the survivor count (dose: 200.0 mg/kg/injection, schedule: Q01DX009 (ip), vehicle: Klucel (hydroxypropylcellulose) (HPC)) was 0 of 6. For the same compound, the survivor count [7] was 0 of 6.

In the case of COc1ccc(C)cc1NC(=O)SCCSC(=O)Nc1cc(C)ccc1OC, the survivor count [1] is reported as 4 of 6.

With NNc1ccc(S(=O)(=O)C(F)(F)C(F)Cl)cc1 (centres undefined) the survivor count (dose: 400.0 mg/kg/injection, schedule: Q01DX009 (ip), vehicle: gum acacia) was 1 of 6.

For [O-][n+]1onc2ccc(Cl)cc21, the survivor count (dose: 150.0 mg/kg/injection, schedule: Q01DX009 (ip), vehicle: Klucel (hydroxypropylcellulose) (HPC)) was 0 of 6, the survivor count (dose: 225.0 mg/kg/injection, schedule: Q01DX009 (ip), vehicle: Klucel (hydroxypropylcellulose) (HPC)) was 0 of 6 and the survivor count (dose: 335.0 mg/kg/injection, schedule: Q01DX009 (ip), vehicle: Klucel (hydroxypropylcellulose) (HPC)) was 0 of 6.

With COc1ccc2c(c1)CC/C(=C\c1ccc(OCCN3CCCC3)cc1)C2=O the survivor count [5] was 0 of 6 and the survivor count [6] was 0 of 6.

For NC(N)=N/N=C/C(Cl)Cl, the T/C (dose: 90.0 mg/kg/injection, schedule: Q01DX Z (oral), vehicle: carboxymethylcellulose (CMC)) was 130 % of control [5 of 6 alive], the survivor count (dose: 120.0 mg/kg/injection, schedule: Q01DX Z (ip), vehicle: carboxymethylcellulose (CMC)) was 3 of 6 and the T/C [8] was 125 and 133 % of control. The survivor count [8] was 3 of 6, the survivor count (dose: 150.0 mg/kg/injection, schedule: Q01DX009 (ip), vehicle: saline) was 0 of 6 and the T/C (dose: 150.0 mg/kg/injection, schedule: Q01DX Z (oral), vehicle: carboxymethylcellulose (CMC)) was 125 and 146 % of control. For the same compound, the survivor count (dose: 180.0 mg/kg/injection, schedule: Q01DX Z (oral), vehicle: carboxymethylcellulose (CMC)) was 2 of 6, the survivor count (dose: 200.0 mg/kg/injection, schedule: Q04DX003 (ip), vehicle: saline) was 0 of 6 and the survivor count (dose: 225.0 mg/kg/injection, schedule: Q01DX009 (ip), vehicle: saline) was 0 of 6. For the same compound, the survivor count (dose: 240.0 mg/kg/injection, schedule: Q01DX Z (oral), vehicle: carboxymethylcellulose (CMC)) was 1 of 6 and 3 of 6, the survivor count (dose: 335.0 mg/kg/injection, schedule: Q01DX009 (ip), vehicle: saline) was 0 of 6 and the survivor count (dose: 480.0 mg/kg/injection, schedule: Q01DX Z (oral), vehicle: carboxymethylcellulose (CMC)) was 0 of 6. The survivor count (dose: 960.0 mg/kg/injection, schedule: Q01DX Z (oral), vehicle: carboxymethylcellulose (CMC)) was 0 of 6.

In the case of COC1C(OC(N)=O)C(O)C(Oc2ccc3c(O)c(NC(=O)c4ccc(O)c(CC=C(C)C)c4)c(=O)oc3c2C)OC1(C)C (centres undefined), the survivor count (dose: 400.0 mg/kg/injection, schedule: Q01DX Z (ip), vehicle: saline) is reported as 0 of 6.

For O=C1CCC(=O)N1C(=O)c1ccccc1, the survivor count (dose: 338.0 mg/kg/injection, schedule: Q01DX Z (ip), vehicle: methylcellulose (MC)) was 6 of 6.
